Measurements: PubChem BioAssay AID2517 (National Center for Advancing Translational Sciences (NCATS), 2010)
The whole screen tested about 350,000 compounds, of which about 1,200 (0.34%) were called active. This list was built around the results that the source calls inconclusive (neither active nor inactive); the mix of calls is not that of the screen. The call rests on the fitted dose curve; in most records, active means well fitted inhibition curve with a large enough effect; inconclusive means small, poorly fitted or top-dose-only effect; inactive means no such curve, though single readings can be large or run the other way. Potencies of inconclusive entries are doubtful fits and often do not repeat.

Protein sequences, listed by entry. Tags and fused reporters are not part of them.
UniProt P27695, whole entry, looked up: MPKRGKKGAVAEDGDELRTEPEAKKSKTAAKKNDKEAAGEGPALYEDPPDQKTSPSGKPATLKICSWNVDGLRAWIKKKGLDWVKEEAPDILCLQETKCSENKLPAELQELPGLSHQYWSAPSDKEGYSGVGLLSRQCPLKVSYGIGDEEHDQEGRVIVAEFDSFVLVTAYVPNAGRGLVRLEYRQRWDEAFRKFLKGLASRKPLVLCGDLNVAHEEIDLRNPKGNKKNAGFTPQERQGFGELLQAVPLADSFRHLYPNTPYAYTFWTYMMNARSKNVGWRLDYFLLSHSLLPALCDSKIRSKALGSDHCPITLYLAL

Each compound was assayed against DNA repair nuclease/redox regulator APEX1 (Homo sapiens) (UniProt P27695) (assay: qHTS Assay for Inhibitors of the Human Apurinic/apyrimidinic Endonuclease 1 (APE1)). Conditions: recombinant APE1, TAMRA/BHQ-2 abasic DNA cleavage fluorescence; series mostly up to 65.8 µM.
Summary of the method: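 Readout is kinetic fluorescence (ex 525, em 598 nm) from cleavage of 50 nM TAMRA/BHQ-2 THF abasic duplex by 0.75 nM APE1, compound added 15 min beforehand at RT.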
Further: nearly all actives have a fitted effect of over 55% in size.
Potency means the concentration at half of the fitted maximal effect.

| SMILES | Potency |
| --- | --- |
| Cn1nnc(NC(=S)NC(=O)/C=C/c2ccco2)n1 | inactive |
| CC(=O)OC(C(=O)NC1CCCCC1)c1cccc(C)c1 (centres undefined) | inconclusive: 7.08 µM [inhibitor, single point] |
| Cc1ccc(S(=O)(=O)NN2C(=O)/C(=C/c3cccs3)SC2=S)cc1 | inconclusive: 31.6 µM [inhibitor, partial curve, poor fit] |
| COc1cc(Cl)c(C)cc1NC(=O)CSc1cc(Cl)ccc1Cl | inconclusive: 44.7 µM [inhibitor, single point] |
| NS(=O)(=O)c1ccc(CCNC(=O)c2ccc3c(c2)OCCO3)cc1 | inconclusive: 31.6 µM [inhibitor, partial curve, poor fit] |
| Cc1ccc(-n2c(N)c(C(=O)N3CCN(C)CC3)sc2=S)cc1 | inactive |
| COC(=O)c1ccc(CSc2ccc3nnc(-c4ccccc4)n3n2)o1 | inconclusive: 44.7 µM [inhibitor, single point] |
| CCNC(=O)Cc1ccc(NS(=O)(=O)c2ccc(F)cc2)cc1 | inconclusive: 31.6 µM [inhibitor, single point] |
| Cn1cc(C(=O)Nc2cccc(F)c2)cn1 | inactive |
| O=C1CNC(=O)/C1=C/c1ccc(O)cc1 | active: 0.891 µM |
| Cc1cccc(OCC(O)CN2C(C)(C)CC(O)CC2(C)C)c1 (centres undefined) | inconclusive: 0.0141 µM [inhibitor, full curve, poor fit] |
| CCN1CCN(C(=O)/C=C/c2ccccc2[N+](=O)[O-])CC1 | inconclusive: 7.94 µM [inhibitor, single point] |
| Cc1ccc(Cl)cc1N1CCN(C(=O)CSc2ccsc2[N+](=O)[O-])CC1 | inconclusive: 31.6 µM [inhibitor, partial curve] |
| COc1cc(/C=N/Nc2ccc([N+](=O)[O-])cc2S(=O)(=O)N2CCOCC2)cc(OC)c1OC | inconclusive: 7.94 µM [inhibitor, single point] |
| CC[n+]1ccc(/C=C2\Sc3ccccc3N2CCCS(=O)(=O)[O-])c2ccccc21 | inconclusive: 44.7 µM [inhibitor, single point] |
| Cc1ccc(NC(=O)CN2C(=O)N/C(=C/c3ccco3)C2=O)cc1 | active: 3.16 µM |
| O=C(O)c1cn[nH]c1-c1cccc([N+](=O)[O-])c1 | inconclusive: 31.6 µM [inhibitor, partial curve] |
| NCCCC[C@@H]1NC(=O)c2cc([N+](=O)[O-])cc(I)c2SC[C@@H](C(=O)NCC(N)=O)NC(=O)CNC1=O | inconclusive: 3.16 µM [inhibitor, single point] |
| CSc1nc2ccc(NC(=O)c3ccc(F)c(F)c3)cc2s1 | inconclusive: 44.7 µM [inhibitor, single point] |
| COc1ccc(-c2nn(-c3ccccc3)cc2/C=C2/SC(=S)N(CCC(=O)O)C2=O)c(C)c1 | inconclusive: 26.7 µM [inhibitor, single point] |
| O=c1cnc2cnc(Oc3ccccc3)nc2n1Cc1cccs1 | inactive |
| CCSc1cc(N2CCCC2)nc(-c2ccc(F)cc2)n1 | inactive |
| CC(=O)NC(CC(=O)O)c1ccc([N+](=O)[O-])cc1 (centres undefined) | inconclusive: 22.4 µM [inhibitor, single point] |

Part of the list above in order of molar mass, descending:

| SMILES | Potency |
| --- | --- |
| NCCCC[C@@H]1NC(=O)c2cc([N+](=O)[O-])cc(I)c2SC[C@@H](C(=O)NCC(N)=O)NC(=O)CNC1=O | inconclusive: 3.16 µM [inhibitor, single point] |
| Cc1ccc(Cl)cc1N1CCN(C(=O)CSc2ccsc2[N+](=O)[O-])CC1 | inconclusive: 31.6 µM [inhibitor, partial curve] |
| Cc1ccc(NC(=O)CN2C(=O)N/C(=C/c3ccco3)C2=O)cc1 | active: 3.16 µM |

(listing goes on)

| SMILES | Potency |
| --- | --- |
| S=C(NCc1ccccc1)NNc1ccccc1 | inconclusive: 14.1 µM [inhibitor, partial curve] |
| Cc1ccc(/C=c2\sc3nc(-c4ccco4)nn3c2=O)o1 | active: 5.62 µM |
| Cc1ccc2nc(/C(C#N)=C/c3ccc(-c4ccccc4C(=O)O)o3)[nH]c2c1 | inconclusive: 26.7 µM [inhibitor, single point] |
| COc1cc(-c2noc(C)c2/C=C/c2ccc(C(=O)O)cc2)cc(OC)c1OC | inconclusive: 23.8 µM [inhibitor, partial curve] |
| CC12CCC=CC1C(c1ccc3ccccc3c1C=Cc1ccccc1)N(Cc1ccccc1)C2=O (centres undefined) | inactive |
| O=C(O)c1ccc(N/N=C/c2ccc(-c3cc(Cl)ccc3Cl)o2)cc1 | inconclusive: 28.2 µM [inhibitor, partial curve, poor fit] |
| CCCc1nnc(-c2ccc(OC)cc2)o1 | inconclusive: 0.0141 µM [inhibitor, full curve, poor fit] |
| O=C(N/N=C/c1coc2ccccc2c1=O)c1ccccc1 | inactive |
| Cc1nc(C#N)c(N/N=C/c2cccc(Cl)c2)o1 | inconclusive: 8.91 µM [inhibitor, single point] |
| COc1ccccc1C(=O)NCCC(=O)NCc1ccccn1 | inactive |
| Cc1ccc(S(=O)(=O)Nc2cc(C)c(O)c(Sc3n[nH]c(C)n3)c2)cc1 | inactive |
| Cc1nc2sc(-c3ccccc3)cc2c(=O)n1N | inactive |
| COc1ccc(NC(=O)CNS(=O)(=O)c2ccc(Cl)cc2)cc1OC | inconclusive: 0.005 µM [inhibitor, full curve, poor fit] |
| Cc1ccc(CCN2C(=O)c3ccc(C(=O)O)cc3C2=O)cc1 | inactive |
| O=C(Nc1ccccc1)c1ccc2nc(-c3ccco3)c(-c3ccco3)nc2c1 | inactive |
| CC(=O)Nc1ccc(C(=O)NNS(=O)(=O)c2ccc(C)cc2)cc1 | inconclusive: 1.26 µM [inhibitor, full curve, poor fit] |
| Cc1ccc(CNC(=O)c2ccc3c(=O)c(O)c(-c4ccc(C)cc4)[nH]c3c2)cc1 | inconclusive: 7.08 µM [inhibitor, partial curve] |
| Cc1ccc(C)c(NC(=O)CSc2ncnc3nc[nH]c23)c1 | inconclusive: 0.447 µM [inhibitor, full curve, poor fit] |
| CCCCCCCCCCCCCCCCCCO | inconclusive: 0.562 µM [inhibitor, full curve] |
| O=c1c(C(c2ccc(O)cc2)c2c(O)nc3n(c2=O)CCCS3)c(O)nc2n1CCCS2 | inconclusive: 31.6 µM [inhibitor, single point] |
| COc1ccc(-c2ccc3c(c2)S(=O)(=O)c2cccc(C(=O)NCCOc4ccccc4Cl)c2C3=O)cc1OC | inactive |
| Cc1cnc(C(=O)Nc2nnc(SCc3c(Cl)cccc3Cl)s2)cn1 | inconclusive: 10 µM [inhibitor, single point] |
| Cc1cc(C)cc(-n2nnc(C(=O)NCc3ccccc3)c2N)c1 | inconclusive: 7.08 µM [inhibitor, partial curve] |

| SMILES | Potency |
| --- | --- |
| CC/C(=C\C1CCCCC1)C(NP(=O)(c1ccccc1)c1ccccc1)c1ccccc1 (centres undefined) | inconclusive: 3.55 µM [inhibitor, single point] |
| CCn1c(-c2cc(-c3ccc(OC(C)C)cc3)nc3ccccc23)n[nH]c1=S | inconclusive: 56.2 µM [inhibitor, partial curve, poor fit] |
| CC(=O)Nc1ccc(NC(=O)CSc2ccccn2)cc1 | inconclusive: 5.62 µM [inhibitor, full curve, poor fit] |
| Cc1occc1C(=O)NCc1nc(-c2ccc(Cl)cc2)no1 | inactive |
| COc1ccc(-n2c(C)cc(/C=C/c3nc(O)c([N+](=O)[O-])c(=O)[nH]3)c2C)cc1 | inconclusive: 44.7 µM [inhibitor, single point] |
| O=C(Nc1ccccc1)OCCN1CCN(Cc2ccccc2)CCC1=O | inconclusive: 4.47 µM [inhibitor, partial curve, poor fit] |
| Clc1nccc2c1ccc1ccccc12 | inconclusive: 5.62 µM [inhibitor, full curve, poor fit] |
| C=CCOc1ccc(C2CC(C)=NN2c2ccccc2)cc1 (centres undefined) | inconclusive: 31.6 µM [inhibitor, partial curve] |
| C=CCNC(=O)c1ccc(Cn2cc(C(F)(F)F)ccc2=O)cc1 | inconclusive: 1.58 µM [inhibitor, full curve, poor fit] |
| O=C1/C(=C\c2cc([N+](=O)[O-])ccc2O)SC(=S)N1Cc1ccc(Cl)cc1 | inconclusive: 3.36 µM [inhibitor, full curve, poor fit] |
| O=S(=O)(NCCSc1ccccn1)c1ccc(Cl)cc1 | inconclusive: 3.16 µM [inhibitor, full curve, poor fit] |
| Cc1cc(C)c2nc(-c3ccco3)cc(C(=O)O)c2c1 | active: 7.08 µM |
| C=CCn1c(O)c(N=NC(=O)CNC(=O)/C=C/c2ccco2)c2ccccc21 | inconclusive: 31.6 µM [inhibitor, single point] |
| Cc1ccc2c(CC(=O)N3CCN(S(=O)(=O)c4ccccc4)CC3)coc2c1 | inconclusive: 23.8 µM [inhibitor, single point] |
| Cc1cc(=O)[nH]c(SCC(=O)Nc2ccc(S(N)(=O)=O)cc2)n1 | inconclusive: 35.5 µM [inhibitor, single point] |
| O=C(CN1C(=O)c2ccccc2C1=O)NCC(=O)OCC(=O)c1cccc([N+](=O)[O-])c1 | inactive |
| C/C(=N\NC(=O)c1cc(C)nc2ccccc12)c1ccccn1 | inactive |
| CC(=O)c1cccc(S(=O)(=O)N2CCC(C(=O)OC3CCOC3=O)CC2)c1 (centres undefined) | inconclusive: 23.8 µM [inhibitor, single point] |
| O=C(CSc1nc(-c2ccccc2)c(-c2ccccc2)[nH]1)NCc1ccco1 | inconclusive: 2.82 µM [inhibitor, full curve] |
| COC(=O)c1ccc(O)c(Sc2cc(C(=O)OC)ccc2O)c1 | inconclusive: 0.0079 µM [inhibitor, full curve, poor fit] |
| CC(C)(C)c1ccc(OCC2CO2)cc1 (centres undefined) | inactive |
| COc1ccc(C(=O)NCC(=O)OCC(=O)Nc2sccc2C#N)cc1OC | inconclusive: 28.2 µM [inhibitor, single point] |
| CC1=Nc2cc(C(=O)O)ccc2Sc2ccc(Br)cc21 | inconclusive: 2.51 µM [inhibitor, partial curve] |

As entered above:
Potency, CC1=Nc2cc(C(=O)O)ccc2Sc2ccc(Br)cc21 is entered as inconclusive: 2.51 µM [inhibitor, partial curve]
Potency, Cc1cc(C)c2nc(-c3ccco3)cc(C(=O)O)c2c1 is entered as active: 7.08 µM
